PubChem BioAssay AID743121 – NCATS – 2013
In all, the deposit lists about 26,000 reagents; below is a part drawn at random. 167 of them (0.63%) were called active. 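Calls are per gene from RSA p-values that are not deposited; an individual active-marked siRNA can sensitise only weakly.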 Reagents against one gene are numbered here.

Assay: 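Knock-downs that sensitise breast cancer cells to camptothecin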 (primary screen)
System: MDA-MB-231 cells, a human breast cancer line
Reagent: single siRNA against human genes, 20 nM siRNA (0.8 pmol per well)
Time to read-out: 120 h (drug added 48 h after transfection, read 72 h later)
Challenge: camptothecin 20 nM (about EC30) for 72 h; vehicle 0.1% DMSO in parallel plates
Read-out: 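Cell viability by ATP luminescence (CellTiter-Glo) as % of non-targeting siRNA wells, and the log2 ratio of viability without drug over viability with camptothecin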
Reading the numbers: log2 vehicle/camptothecin viability: higher = stronger sensitisation to camptothecin; viability with camptothecin and viability without drug: higher = more viable cells
Call rule: 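Active genes have an RSA gene-level p-value below 0.001, computed from the ratios of their separate siRNAs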

no.	Target gene	reagent	log2 vehicle/camptothecin viability	viability with camptothecin (% of control)	viability without drug (% of control)	outcome
1	MTNR1B (GeneID 4544)	1	-0.0854	102	96	inactive
2	MTNR1B (GeneID 4544)	2	-0.0663	71.6	68.4	inactive
3	MTNR1B (GeneID 4544)	3	-0.332	69.6	55.3	inactive
4	MTNR1B (GeneID 4544)	4	-0.124	126	116	inactive
5	TINAG (GeneID 27283)	1	-0.17	115	102	inactive
6	TINAG (GeneID 27283)	2	0.0679	69.1	72.5	inactive
7	TINAG (GeneID 27283)	3	0.157	74.3	82.8	inactive
8	TINAG (GeneID 27283)	4	-0.176	98	86.7	inactive
9	KMT2E (GeneID 55904)	1	-0.00313	53.1	53	inactive
10	KMT2E (GeneID 55904)	2	-0.812	40.5	23.1	inactive
11	KMT2E (GeneID 55904)	3	0.304	65.4	80.7	inactive
12	EPG5 (GeneID 57724)	1	-0.184	97.7	85.9	inactive
13	EPG5 (GeneID 57724)	2	0.052	107	111	inactive
14	EPG5 (GeneID 57724)	3	-0.205	99.1	86	inactive
15	EPG5 (GeneID 57724)	4	-0.113	95.4	88.2	inactive
16	IQGAP1 (GeneID 8826)	1	0.0479	101	104	inactive
17	IQGAP1 (GeneID 8826)	2	-0.16	27.5	24.6	inactive
18	IQGAP1 (GeneID 8826)	3	-0.0822	60.9	57.5	inactive
19	IQGAP1 (GeneID 8826)	4	-0.00576	65.3	65	inactive
20	KCNA5 (GeneID 3741)	1	-0.344	90.8	71.5	inactive
21	KCNA5 (GeneID 3741)	2	-0.528	56.7	39.3	inactive
22	KCNA5 (GeneID 3741)	3	-0.188	56.3	49.4	inactive
23	KCNA5 (GeneID 3741)	4	-0.613	81.4	53.2	inactive
24	NUCLEOLIN (GeneID 4691)	1	-0.265	59.2	49.3	inactive
25	NUCLEOLIN (GeneID 4691)	2	-0.283	63.8	52.4	inactive
26	NUCLEOLIN (GeneID 4691)	3	-0.432	79.2	58.7	inactive
27	NUCLEOLIN (GeneID 4691)	4	-0.255	59.6	49.9	inactive
28	EMX2 (GeneID 2018)	1	0.357	66.2	84.8	inactive
29	EMX2 (GeneID 2018)	2	0.945	40.8	78.6	inactive
30	EMX2 (GeneID 2018)	3	-0.178	43.4	38.4	inactive
31	EMX2 (GeneID 2018)	4	-0.221	66.8	57.3	inactive
32	ERCC6 (GeneID 2074)	1	-0.0748	99.2	94.2	inactive
33	ERCC6 (GeneID 2074)	2	-0.0118	86	85.3	inactive
34	ERCC6 (GeneID 2074)	3	-0.163	117	104	inactive
35	ERCC6 (GeneID 2074)	4	0.836	25.6	45.6	inactive
36	CACNG7 (GeneID 59284)	1	-0.361	72	56.1	inactive
37	CACNG7 (GeneID 59284)	2	0.0696	51.9	54.5	inactive
38	CACNG7 (GeneID 59284)	3	-0.152	96.6	87	inactive
39	CACNG7 (GeneID 59284)	4	-0.528	74.2	51.4	inactive
40	GPX4 (GeneID 2879)	1	1.25	13.8	32.8	active
41	GPX4 (GeneID 2879)	2	1.2	2.29	5.27	active
42	GPX4 (GeneID 2879)	3	1.48	5.22	14.5	active
43	GPX4 (GeneID 2879)	4	-0.106	5.26	4.89	active
44	ERP44 (GeneID 23071)	1	-0.287	116	95.2	inactive
45	ERP44 (GeneID 23071)	2	0.221	87.7	102	inactive
46	ERP44 (GeneID 23071)	3	-0.196	90.9	79.3	inactive
47	ERP44 (GeneID 23071)	4	-0.112	103	95.2	inactive
48	CAMKK2 (GeneID 10645)	1	-0.0343	54	52.7	inactive
49	CAMKK2 (GeneID 10645)	2	-0.166	111	98.6	inactive
50	CAMKK2 (GeneID 10645)	3	-0.42	72.8	54.4	inactive
51	CAMKK2 (GeneID 10645)	4	-0.646	61.7	39.5	inactive
52	REEP3 (GeneID 221035)	1	-0.414	121	90.6	inactive
53	REEP3 (GeneID 221035)	2	0.00998	84.1	84.7	inactive
54	REEP3 (GeneID 221035)	3	-0.127	98.1	89.8	inactive
55	REEP3 (GeneID 221035)	4	0.0502	77.9	80.6	inactive
56	LEP (GeneID 3952)	1	-0.241	26.2	22.2	inactive
57	LEP (GeneID 3952)	2	0.313	13.3	16.5	inactive
58	LEP (GeneID 3952)	3	-0.155	87	78.1	inactive
59	PEX5 (GeneID 5830)	1	0.422	17.1	22.9	inactive
60	PEX5 (GeneID 5830)	2	0.0405	78.5	80.8	inactive
61	PEX5 (GeneID 5830)	3	-0.258	90.4	75.6	inactive
62	NCR1 (GeneID 9437)	1	0.0931	64.4	68.7	inactive
63	NCR1 (GeneID 9437)	2	-0.552	63.9	43.6	inactive
64	NCR1 (GeneID 9437)	3	-0.224	83	71.1	inactive
65	NCR1 (GeneID 9437)	4	-0.532	58.4	40.4	inactive
66	TREML1 (GeneID 340205)	1	-0.0601	58.6	56.2	inactive
67	TREML1 (GeneID 340205)	2	-0.00506	104	104	inactive
68	TREML1 (GeneID 340205)	3	0.0419	38.1	39.2	inactive
69	TREML1 (GeneID 340205)	4	0.107	41.7	44.9	inactive
